The results in this text go back to the supplement of paper PMC10849652.

Amino acid sequences for entries named in this document (tags omitted). A change or cut given only in a name is not applied to a line headed by its entry.
UniProt O14981: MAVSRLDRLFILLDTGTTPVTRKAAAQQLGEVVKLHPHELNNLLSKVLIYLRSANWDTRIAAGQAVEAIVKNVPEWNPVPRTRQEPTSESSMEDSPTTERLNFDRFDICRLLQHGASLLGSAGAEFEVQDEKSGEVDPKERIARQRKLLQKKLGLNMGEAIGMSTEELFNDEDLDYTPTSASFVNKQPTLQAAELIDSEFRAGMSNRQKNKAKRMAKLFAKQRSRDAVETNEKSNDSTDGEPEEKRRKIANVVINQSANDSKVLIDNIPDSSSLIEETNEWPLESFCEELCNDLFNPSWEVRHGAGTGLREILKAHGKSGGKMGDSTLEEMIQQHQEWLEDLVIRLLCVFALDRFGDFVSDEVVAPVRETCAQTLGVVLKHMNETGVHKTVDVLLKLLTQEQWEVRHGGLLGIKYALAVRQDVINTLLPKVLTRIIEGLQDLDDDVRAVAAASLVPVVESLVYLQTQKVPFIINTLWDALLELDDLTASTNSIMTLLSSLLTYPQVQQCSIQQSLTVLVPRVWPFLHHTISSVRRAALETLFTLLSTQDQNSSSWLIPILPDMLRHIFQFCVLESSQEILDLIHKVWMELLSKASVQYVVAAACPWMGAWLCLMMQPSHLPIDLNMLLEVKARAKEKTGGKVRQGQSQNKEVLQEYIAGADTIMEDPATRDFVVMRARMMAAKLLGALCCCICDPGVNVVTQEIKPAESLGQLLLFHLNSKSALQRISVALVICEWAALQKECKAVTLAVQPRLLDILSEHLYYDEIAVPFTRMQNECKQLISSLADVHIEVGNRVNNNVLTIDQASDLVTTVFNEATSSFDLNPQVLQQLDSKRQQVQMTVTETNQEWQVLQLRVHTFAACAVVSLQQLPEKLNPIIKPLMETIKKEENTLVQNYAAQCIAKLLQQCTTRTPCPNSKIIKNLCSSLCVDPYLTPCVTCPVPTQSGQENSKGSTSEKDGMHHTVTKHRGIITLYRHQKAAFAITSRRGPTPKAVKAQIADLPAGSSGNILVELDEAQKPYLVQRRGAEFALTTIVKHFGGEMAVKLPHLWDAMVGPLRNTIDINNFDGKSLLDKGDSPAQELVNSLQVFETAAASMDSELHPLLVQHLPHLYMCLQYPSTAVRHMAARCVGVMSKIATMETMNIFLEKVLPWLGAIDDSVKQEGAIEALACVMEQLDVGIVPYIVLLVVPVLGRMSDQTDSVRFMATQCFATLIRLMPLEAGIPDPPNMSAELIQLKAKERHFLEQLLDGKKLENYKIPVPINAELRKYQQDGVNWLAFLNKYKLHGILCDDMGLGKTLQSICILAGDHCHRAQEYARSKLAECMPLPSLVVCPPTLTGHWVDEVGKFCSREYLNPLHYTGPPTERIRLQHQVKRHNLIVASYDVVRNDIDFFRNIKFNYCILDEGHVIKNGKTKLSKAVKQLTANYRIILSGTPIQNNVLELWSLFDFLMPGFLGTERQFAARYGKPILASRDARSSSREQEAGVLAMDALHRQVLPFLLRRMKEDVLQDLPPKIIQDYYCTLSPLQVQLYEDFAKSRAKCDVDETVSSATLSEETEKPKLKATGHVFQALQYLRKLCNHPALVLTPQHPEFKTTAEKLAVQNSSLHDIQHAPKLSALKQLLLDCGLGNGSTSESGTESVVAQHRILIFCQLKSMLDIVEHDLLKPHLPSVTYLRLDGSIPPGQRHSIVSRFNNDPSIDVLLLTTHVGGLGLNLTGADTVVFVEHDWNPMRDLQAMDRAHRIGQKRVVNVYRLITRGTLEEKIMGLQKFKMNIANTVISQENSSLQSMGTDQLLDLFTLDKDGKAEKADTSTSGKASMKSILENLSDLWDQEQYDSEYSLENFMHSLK
UniProt O60566, whole entry, looked up: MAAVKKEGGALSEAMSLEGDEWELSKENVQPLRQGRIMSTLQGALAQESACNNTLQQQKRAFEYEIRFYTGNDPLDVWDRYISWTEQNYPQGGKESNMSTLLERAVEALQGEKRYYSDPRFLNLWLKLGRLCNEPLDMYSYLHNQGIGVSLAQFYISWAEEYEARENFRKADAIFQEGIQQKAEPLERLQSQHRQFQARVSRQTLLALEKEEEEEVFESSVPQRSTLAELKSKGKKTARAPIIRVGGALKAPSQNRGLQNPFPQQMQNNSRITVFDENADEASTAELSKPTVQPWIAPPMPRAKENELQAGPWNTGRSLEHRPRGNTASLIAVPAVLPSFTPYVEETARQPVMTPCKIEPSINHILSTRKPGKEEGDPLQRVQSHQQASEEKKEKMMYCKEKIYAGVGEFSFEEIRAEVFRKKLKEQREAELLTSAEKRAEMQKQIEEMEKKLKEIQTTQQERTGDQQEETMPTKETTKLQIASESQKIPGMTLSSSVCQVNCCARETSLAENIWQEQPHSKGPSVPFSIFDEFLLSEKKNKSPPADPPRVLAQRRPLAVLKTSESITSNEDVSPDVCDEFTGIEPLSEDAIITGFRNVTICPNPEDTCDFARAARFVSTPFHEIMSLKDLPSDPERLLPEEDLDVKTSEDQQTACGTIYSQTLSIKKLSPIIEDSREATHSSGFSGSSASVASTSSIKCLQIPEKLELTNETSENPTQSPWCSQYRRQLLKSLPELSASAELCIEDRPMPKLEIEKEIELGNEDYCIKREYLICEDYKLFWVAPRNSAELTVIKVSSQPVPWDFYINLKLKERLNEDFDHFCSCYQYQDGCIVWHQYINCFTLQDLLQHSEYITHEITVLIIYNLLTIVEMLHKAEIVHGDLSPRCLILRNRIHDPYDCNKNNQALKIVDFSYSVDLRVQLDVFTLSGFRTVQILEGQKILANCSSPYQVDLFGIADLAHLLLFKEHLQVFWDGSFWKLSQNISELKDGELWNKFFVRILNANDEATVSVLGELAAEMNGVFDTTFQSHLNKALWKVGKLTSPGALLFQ
UniProt Q8N1A6: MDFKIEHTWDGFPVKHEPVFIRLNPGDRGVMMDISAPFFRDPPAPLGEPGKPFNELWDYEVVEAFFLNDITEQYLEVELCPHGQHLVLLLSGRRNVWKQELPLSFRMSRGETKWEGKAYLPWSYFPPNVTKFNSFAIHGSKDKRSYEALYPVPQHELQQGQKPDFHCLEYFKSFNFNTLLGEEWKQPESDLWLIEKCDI
UniProt Q7L1Q6: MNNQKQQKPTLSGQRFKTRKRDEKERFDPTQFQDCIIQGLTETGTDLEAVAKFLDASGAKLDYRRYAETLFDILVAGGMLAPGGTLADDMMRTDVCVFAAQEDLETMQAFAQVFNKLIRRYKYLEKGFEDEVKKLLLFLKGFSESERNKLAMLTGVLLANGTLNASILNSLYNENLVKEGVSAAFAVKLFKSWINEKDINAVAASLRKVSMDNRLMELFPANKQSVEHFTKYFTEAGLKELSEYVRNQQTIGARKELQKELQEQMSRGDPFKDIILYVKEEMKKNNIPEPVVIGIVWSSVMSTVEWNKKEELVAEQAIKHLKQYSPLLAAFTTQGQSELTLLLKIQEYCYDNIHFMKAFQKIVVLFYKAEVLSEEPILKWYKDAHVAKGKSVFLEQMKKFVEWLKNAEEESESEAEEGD
UniProt P43251: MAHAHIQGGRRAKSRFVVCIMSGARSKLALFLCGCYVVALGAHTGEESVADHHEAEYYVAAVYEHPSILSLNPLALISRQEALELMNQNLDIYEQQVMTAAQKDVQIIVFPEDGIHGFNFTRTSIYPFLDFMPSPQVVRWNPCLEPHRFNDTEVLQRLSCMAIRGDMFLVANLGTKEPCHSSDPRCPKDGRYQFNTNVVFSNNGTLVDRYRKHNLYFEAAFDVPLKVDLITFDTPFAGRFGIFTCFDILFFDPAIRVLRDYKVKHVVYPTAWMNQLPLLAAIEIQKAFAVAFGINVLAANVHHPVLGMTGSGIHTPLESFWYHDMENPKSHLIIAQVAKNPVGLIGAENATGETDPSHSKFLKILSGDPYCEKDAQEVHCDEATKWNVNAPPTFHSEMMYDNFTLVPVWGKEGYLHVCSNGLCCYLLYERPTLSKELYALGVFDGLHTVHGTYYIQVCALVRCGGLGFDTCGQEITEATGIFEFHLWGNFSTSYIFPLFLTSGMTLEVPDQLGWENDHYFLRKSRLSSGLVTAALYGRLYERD
UniProt Q9Y6E2: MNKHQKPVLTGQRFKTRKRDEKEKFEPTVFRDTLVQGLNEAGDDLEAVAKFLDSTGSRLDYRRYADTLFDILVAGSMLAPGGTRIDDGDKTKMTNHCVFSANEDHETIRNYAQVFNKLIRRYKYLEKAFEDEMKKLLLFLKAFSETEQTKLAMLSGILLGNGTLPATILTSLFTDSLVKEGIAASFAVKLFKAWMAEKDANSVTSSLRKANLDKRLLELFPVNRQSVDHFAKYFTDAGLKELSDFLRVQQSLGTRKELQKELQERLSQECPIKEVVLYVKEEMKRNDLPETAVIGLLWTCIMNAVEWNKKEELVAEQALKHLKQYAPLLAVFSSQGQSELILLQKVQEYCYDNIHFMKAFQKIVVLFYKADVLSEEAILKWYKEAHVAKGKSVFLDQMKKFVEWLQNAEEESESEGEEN
UniProt Q9Y376: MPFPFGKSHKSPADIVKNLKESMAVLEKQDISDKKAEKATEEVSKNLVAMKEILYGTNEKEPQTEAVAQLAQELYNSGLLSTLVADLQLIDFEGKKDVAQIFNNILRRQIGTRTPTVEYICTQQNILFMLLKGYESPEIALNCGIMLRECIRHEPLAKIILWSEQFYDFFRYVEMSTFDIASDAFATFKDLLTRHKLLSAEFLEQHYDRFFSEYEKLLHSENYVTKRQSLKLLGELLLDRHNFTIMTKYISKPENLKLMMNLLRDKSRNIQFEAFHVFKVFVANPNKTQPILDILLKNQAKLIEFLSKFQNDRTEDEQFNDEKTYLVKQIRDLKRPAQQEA
UniProt Q10589, whole entry, looked up: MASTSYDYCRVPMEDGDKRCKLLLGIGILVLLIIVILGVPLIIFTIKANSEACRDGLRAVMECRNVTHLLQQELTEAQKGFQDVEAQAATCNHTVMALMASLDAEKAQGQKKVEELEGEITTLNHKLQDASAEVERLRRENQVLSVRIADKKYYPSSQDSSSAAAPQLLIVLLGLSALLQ
UniProt Q01518, whole entry, looked up: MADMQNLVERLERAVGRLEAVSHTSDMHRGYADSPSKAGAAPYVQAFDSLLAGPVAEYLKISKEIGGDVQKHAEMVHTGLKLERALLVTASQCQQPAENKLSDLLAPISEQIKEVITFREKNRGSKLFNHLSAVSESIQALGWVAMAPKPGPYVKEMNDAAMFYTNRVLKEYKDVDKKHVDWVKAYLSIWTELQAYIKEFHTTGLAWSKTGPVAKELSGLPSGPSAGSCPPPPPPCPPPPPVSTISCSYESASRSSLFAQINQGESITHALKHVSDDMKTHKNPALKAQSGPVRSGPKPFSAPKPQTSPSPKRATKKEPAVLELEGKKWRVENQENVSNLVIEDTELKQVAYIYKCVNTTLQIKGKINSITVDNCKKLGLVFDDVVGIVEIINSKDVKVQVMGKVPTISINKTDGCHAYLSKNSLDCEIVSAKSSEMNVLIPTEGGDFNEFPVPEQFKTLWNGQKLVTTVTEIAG
UniProt Q5T6V5: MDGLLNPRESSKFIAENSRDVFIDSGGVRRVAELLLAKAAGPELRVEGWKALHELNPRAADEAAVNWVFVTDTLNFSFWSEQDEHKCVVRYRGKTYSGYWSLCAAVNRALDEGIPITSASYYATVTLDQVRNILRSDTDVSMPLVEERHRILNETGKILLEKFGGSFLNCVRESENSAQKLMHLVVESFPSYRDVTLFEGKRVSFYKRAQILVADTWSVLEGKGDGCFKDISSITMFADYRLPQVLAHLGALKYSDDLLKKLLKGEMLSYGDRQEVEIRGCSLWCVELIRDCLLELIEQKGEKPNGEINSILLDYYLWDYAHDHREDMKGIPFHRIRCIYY

The list shows a part of the results.

Common to all, as to test: log2 fold change, soluble protein after heating vs DMSO (PISA); higher = thermal stabilisation; K562 cells, 10 uM, 30 min; active = over 0.2 and 3.5 SD of the protein, either way, in both replicates (recomputed)
Compound in assay [1]: CC[C@@H]1C(=O)N(C)c2cnc(Nc3ccc(C(=O)NC4CCN(C)CC4)cc3OC)nc2N1C1CCCC1
The essentials: (§1)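 Thermal stability values are relative to control samples and come from duplicates. They are expressed as log2 fold changes. For measurement, K562 cells (2×10^6 cells/mL) received 10 μM compound for 30 min, and aliquots were heated for 3 min over 48°C-58°C, pooled, and extracted at 4°C in PBS with 0.5% NP-40. Soluble protein, the supernatant after 21,000xg for 90 min, was quantified by TMTpro 16plex LC-MS/MS with equalised channel sums.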

Compound in the next assay: CC[C@@H]1C(=O)N(C)c2cnc(Nc3ccc(C(=O)N[C@H]4CC[C@H](N5CCN(CC6CC6)CC5)CC4)cc3OC)nc2N1C(C)C [volasertib]
In short, it runs like this: as §1

Compound in assay [2]: CC[C@H](C)N1C=C(C2=C(C=C(C=C21)C3=CN=C(C=C3)N4CCNCC4)C(=O)NCC5=C(C=C(NC5=O)C)C)C
In short, it runs like this:
as §1

Compound in a further assay: CC[C@H](C)[C@@H](C(=O)N[C@@H]([C@@H](C)O)C(=O)N[C@@H](CC(C)C)C(=O)[C@]1(CO1)C)NC(=O)[C@H]([C@@H](C)CC)N(C)C(=O)C [epoxomicin]
In short, it runs like this:
as §1

Compound in assay [3]: CCn1cc(-c2ccnc3[nH]c(-c4cccc(CN(C)C)c4)cc23)c(-c2ccc(NC(=O)N(C)C)cc2)n1
The essentials: as §1

Compound in assay [4]: CN(C)CC(=O)Nc1ccc2[nH]c(=O)c3ccccc3c2c1
The essentials: as §1

Compound in assay [5]: CN1C2=C(C3=C1C(=O)N(N=C3)CC4=CC(=CC=C4)N)SC(=C2)S(=O)C
In short, it runs like this: as §1

Compound in assay [6]: CN1CCC(CNc2ccc3ncc(-c4cccc(OC(F)(F)F)c4)n3n2)CC1
The essentials: as §1

Compound in assay [7]: CCn1c(C(=O)N(C2CC2)C2CC2)cc2c3c(ncn3C)c(Nc3cc(C)n(C)n3)nc21
The essentials: as §1

Compound in the next assay: CN(CCOC1=CC=C(C=C1)C[C@H]2C(=O)NC(=O)S2)C3=CC=CC=N3 (racemic) [rosiglitazone]
The essentials:
as §1

Take BTAF1 (UniProt O14981): the log2 fold change in [1] was inactive: -0.087; in the assay with volasertib, active: -0.265; in [2] it was inactive: 0.061; with epoxomicin, inactive: 0.086; in assay [3], inactive: -0.07; in assay [4], inactive: 0.027. For the same target, the log2 fold change in assay [5] was inactive: -0.055; in assay [6], inactive: -0.09.
In the case of BUB1B isoform 3 (UniProt O60566), the log2 fold change is inactive: -0.127 in [1]; active: -0.66 with volasertib; inactive: 0.056 in [2]; inactive: 0.02 in the assay with epoxomicin; inactive: 0.043 in [3]; inactive: 0.065 in [4]. Also, the log2 fold change was inactive: 0.013 in assay [5] and inactive: -0.078 in assay [6].
For the target C4orf33 (UniProt Q8N1A6), the log2 fold change in assay [1] is inactive: 0.044; with volasertib, inactive: 0.066; in assay [2], inactive: 0.007; in the assay with epoxomicin it was inactive: -0.084; in [3] it was inactive: -0.062; in assay [4], inactive: -0.007. Further, the log2 fold change in [5] is inactive: 0.009; in assay [6] it was inactive: -0.027.
Take C19orf53 (UniProt Q9UNZ5): the log2 fold change in [1] was inactive: 0.205; in the assay with volasertib, inactive: 0.412; in assay [2], inactive: 0.045; with epoxomicin it was inactive: -0.264; in [3], inactive: 0.239; in assay [4], inactive: -0.189. Further, the log2 fold change in assay [5] is inactive: 0.34; in assay [6], inactive: 0.2.
Consider BZW1 isoform 3 (UniProt Q7L1Q6), for which the log2 fold change in assay [1] was inactive: -0.273; in the assay with volasertib, active: -0.82; in [2] it was inactive: 0.114; with epoxomicin it was inactive: 0.019; in [3], inactive: -0.041; in [4], inactive: 0.104. Moreover, the values for the log2 fold change in [5] and in assay [6] were inactive: 0.068 and inactive: -0.33, respectively.
As to BTD isoform 3 (UniProt P43251), the log2 fold change in assay [1] is inactive: 0.14; in the assay with volasertib it was inactive: -0.034; in assay [2], inactive: 0.018; with epoxomicin it was inactive: -0.06; in assay [7], inactive: -0.013; in assay [4] it was inactive: 0.166. Also, the log2 fold change was inactive: -0.011 with rosiglitazone and inactive: -0.008 in assay [5].
As for BZW2 (UniProt Q9Y6E2), the log2 fold change in [1] was inactive: -0.193; with volasertib, active: -0.367; in [2], inactive: 0.042; with epoxomicin, inactive: 0.043; in assay [3] it was inactive: -0.016; in assay [4], inactive: 0.02. Besides, the log2 fold change in [5] was inactive: -0.037; in assay [6] it was active: -0.298.
Consider CAB39 (UniProt Q9Y376), for which the log2 fold change in [1] was inactive: 0.004; with volasertib it was inactive: -0.015; in assay [2], inactive: -0.023; in the assay with epoxomicin, inactive: 0.005; in [7], inactive: 0.021; in assay [3], inactive: -0.034. Further, the log2 fold change is inactive: -0.008 in assay [4], inactive: -0.016 with rosiglitazone, inactive: -0.066 in assay [5] and inactive: -0.036 in [6].
As to BST2 (UniProt Q10589), the log2 fold change in [1] was inactive: 0.091; with volasertib, inactive: 0.206; in assay [2] it was inactive: -0.062; in the assay with epoxomicin, inactive: -0.025; in assay [3], inactive: 0.045; in assay [4], inactive: -0.008. Moreover, the values for the log2 fold change in [5] and in assay [6] were inactive: 0 and active: 0.223, respectively.
Consider CAP1 (UniProt Q01518), for which the log2 fold change in assay [1] is inactive: -0.033; in the assay with volasertib, inactive: 0.019; in [2] it was inactive: 0.005; with epoxomicin it was inactive: 0.018; in assay [7], inactive: 0.014; in [3], inactive: -0.084. For the same target, the log2 fold change is inactive: -0.022 in assay [4], inactive: 0.02 with rosiglitazone, inactive: -0.103 in assay [5] and inactive: -0.001 in [6].
On to CAMSAP1 isoform 3 (UniProt Q5T5Y3), for which the log2 fold change is inactive: -0.044 in assay [1]; active: -0.576 with volasertib; inactive: 0.184 in assay [2]; inactive: 0.068 with epoxomicin; inactive: -0.003 in assay [3]; inactive: -0.232 in [4]. The log2 fold change in assay [5] was inactive: 0.03; in assay [6], inactive: -0.254.
On to C9orf64 (UniProt Q5T6V5), for which the log2 fold change was inactive: -0.066 in assay [1]; inactive: -0.309 in the assay with volasertib; inactive: 0.103 in assay [2]; inactive: -0.004 with epoxomicin; inactive: -0.149 in assay [3]; inactive: 0.075 in [4]. Further, the log2 fold change in assay [5] is inactive: -0.007; in [6] it was active: -0.396.
